Patent publication US8426396B2, “Treatment for achondroplasia” (Shriners Hospitals for Children, priority 2008, dated 2013)
For at least one compound, name, drawing or mass did not settle the structure.

Experiments:
[1] = tested on: WT FGFR3-GFP, TDII FGFR3-GFP; experiment: FGFR3 ubiquitination (immunoprecipitation of FGFR3-GFP, blot for HA-ubiquitin); assay type: cell-based, mouse; conditions: cells expressing WT or TDII FGFR3-GFP and HA:ubiquitin; FIG. 9
[2] = tested on: TDII FGFR3-GFP; experiment: Confocal microscopy of cells expressing TDII FGFR3-GFP; assay type: cell-based, mouse; conditions: three-hour treatment
[3] = tested on: FGFR3:Hsp90 complex; experiment: Cofactor content of FGFR3:Hsp90 complex after 17-AAG treatment (immunoblot); assay type: cell-based
[4] = tested on: TDII FGFR3 signaling through the MAPK pathway; experiment: FGFR3 signaling: time-dependent pErk and TDII FGFR3 levels in Cos7 cells; assay type: cell-based, mouse; conditions: Cos7 cells expressing TDII FGFR3; time-dependent experiment
[5] = tested on: heterozygous (HET) FGFR3 mutant mice; experiment: Femoral length in FGFR3 K644E mutant mice (scanned skeletal X-rays); assay type: in vivo, mouse

C=CCNC1=C2C[C@@H](C)C[C@H](OC)[C@H](O)[C@@H](C)/C=C(\C)[C@H](OC(N)=O)[C@@H](OC)/C=C\C=C(/C)C(=O)NC(=CC1=O)C2=O [17-AAG, 17-ally-lamino-17-demethoxygeldanamycin]
FGFR3 ubiquitination [1]: increased FGFR3 ubiquitination
cellular GFP signal [2]: reduced cellular GFP signal
CHIP in FGFR3:Hsp90 complex ([3]; FIG. 12): CHIP recruited to the FGFR3:Hsp90 complex
p23 in FGFR3:Hsp90 complex ([3]; FIG. 13): p23 is displaced
TDII FGFR3 protein level [4]: reduction in pErk and TDII FGFR3 protein levels
pErk (phosphorylated Erk) protein level [4]: reduction in pErk
femoral length, treated vs untreated ([5]; heterozygous mice of both sexes, 25 mg/kg intraperitoneally three times a week from 2 to 8 weeks of age, X-rays at weeks 4, 6 and 8): increasingly longer femurs over time than untreated mice
statistical significance of femoral length difference ([5]; heterozygous mice, graphs with error bars (FIGS. 16B and 17B)): the difference may not be statistically significant
